Values quoted from earlier work in patent US8062679B2, “Composition for maintaining androgen and androgen-like uptake potential by cells” (Northern Innovations and Formulations Corp., priority 2007, dated 2011).
For at least one compound, name, drawing or mass did not settle the structure.

Test system: isolated fat cells
Conditions: isolated fat cells in vitro

In the case of `C=C[C@@]1(C)CC(=O)[C@]2(O)[C@@]3(C)[C@@H](O)CCC(C)(C)[C@@H]3[C@H](O)[C@H](OC(C)=O)[C@@]2(C)O1` [forskolin, Forskolin], the lipolysis is listed as “increased”.
